These are yes or no findings as the source states them, for the method shown. In cells and extracts the contact can be indirect. Some results given as binding are weak or reduced against the parent protein; the word gives no strength. Tags and fused reporters may be left off the sequences shown.
Biological target: T1, Flag-IRF3 (UniProt Q14653)
T1 sequence: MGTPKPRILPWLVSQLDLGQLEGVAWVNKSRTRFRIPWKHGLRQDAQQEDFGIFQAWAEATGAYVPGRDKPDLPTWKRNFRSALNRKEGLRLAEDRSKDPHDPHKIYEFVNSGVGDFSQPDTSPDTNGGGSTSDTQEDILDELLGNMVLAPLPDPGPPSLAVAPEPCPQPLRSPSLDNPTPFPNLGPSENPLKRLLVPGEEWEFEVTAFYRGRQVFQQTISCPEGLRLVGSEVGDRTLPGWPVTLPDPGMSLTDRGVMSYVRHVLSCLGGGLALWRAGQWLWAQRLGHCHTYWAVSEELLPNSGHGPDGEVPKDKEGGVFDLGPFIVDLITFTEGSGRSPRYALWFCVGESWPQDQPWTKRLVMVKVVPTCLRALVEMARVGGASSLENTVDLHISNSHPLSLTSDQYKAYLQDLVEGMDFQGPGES
Assay: co-IP; HEK293T co-transfected with Flag-IRF3, His-UBE2J1 and HA-ubiquitin (or HA-K48 or HA-K63 ubiquitin); MG132 20 uM for 6 h before harvest; lysate on anti-Flag M2 Affinity Gel overnight at 4 °C; four washes with lysis buffer containing 500 mM NaCl; UBE2J1 detected with anti-His

B1: His-tagged UBE2J1 (enzyme, UniProt Q9Y385 1-318)
chain: METRYNLKSPAVKRLMKEAAELKDPTDHYHAQPLEDNLFEWHFTVRGPPDSDFDGGVYHGRIVLPPEYPMKPPSIILLTANGRFEVGKKICLSISGHHPETWQPSWSIRTALLAIIGFMPTKGEGAIGSLDYTPEERRALAKKSQDFCCEGCGSAMKDVLLPLKSGSDSSQADQEAKELARQISFKAEVNSSGKTISESDLNHSFSLTDLQDDIPTTFQGATASTSYGLQNSSAASFHQPTQPVAKNTSMSPRQRRAQQQSQRRLSTSPDVIQGHQPRDNHTDHGGSAVLIVILTLALAALIFRRIYLANEYIFDFEL
Question: With B1 as the binder, how does the binding read?
Answer: binds
